Values quoted from earlier work in patent US20060160701A1, “Natural herbicidal agent containing momilactones A and B identified in and isolated from rice hulls” (Konkuk University Industrial Cooperation Corp., priority 2005, published 2006).
Some entries share one result that the patent states for a list of compounds. For at least one compound, name, drawing or mass did not settle the structure.

Tested on: rice roots
Conditions: Kato et al., Tetrahederon Letters 39, 1973; cited from earlier work

## C=C[C@]1(C)CC[C@@H]2C(=C[C@H]3OC(=O)[C@]4(C)[C@H]3[C@]23CC[C@@]4(O)OC3)C1 [Momilactone B]
  concentration inhibiting the growth of rice roots: less than 100 ppm
